Patent US20170000133A1, “BENZOXABOROLE FUNGICIDES” (SYNGENTA PARTICIPATIONS AG, priority 2013, published 2017)
Some entries share one result that the patent states for a list of compounds. At least one compound was matched to its structure with a doubt left.

Legend:
[1] = system: Pythium ultimum; test: Pythium ultimum / liquid culture (seedling damping off); format: cell-based; conditions: 200 ppm; potato dextrose broth, 24° C., 2-3 days after application
[2] = system: Mycosphaerella arachidis (Cercospora arachidicola); test: Mycosphaerella arachidis (Cercospora arachidicola) / liquid culture (early leaf spot); format: cell-based; conditions: 200 ppm; PDB potato dextrose broth, 24° C., 4-5 days after application
Procedure: (§1) 12. Mycosphaerella arachidis (Cercospora arachidicola)/Liquid Culture (Early Leaf Spot): Conidia of the fungus from cryogenic storage were directly mixed into nutrient broth (PDB potato dextrose broth). After placing a DMSO solution of test compound into a 96-well microtiter plate at an application rate of 200 ppm, the nutrient broth containing the fungal spores was added. The test plates were incubated at 24° C. and the inhibition of growth was determined photometrically 4-5 days after application.

[3] = system: Puccinia recondita f. sp. tritici; test: Puccinia recondita f. sp. tritici / wheat / leaf disc preventative (brown rust); format: in vivo; conditions: 200 ppm, wheat leaf segments cv Kanzler, inoculated 1 day after application, assessed 7-9 days after application
Source text: 3. Puccinia recondita f. sp. tritici/Wheat/Leaf Disc Preventative (Brown Rust): Wheat leaf segments cultivated variety (cv) Kanzler were placed on agar in 24-well plates and sprayed with formulated test compound diluted in water at an application rate of 200 ppm. The leaf disks were inoculated with a spore suspension of the fungus 1 day after application.

[4] = system: Monographella nivalis (Microdochium nivale); test: Monographella nivalis (Microdochium nivale) / liquid culture (foot rot cereals); format: cell-based; conditions: 200 ppm; PDB potato dextrose broth, 24° C., 4-5 days after application
[5] = system: Mycosphaerella graminicola (Septoria tritici); test: Mycosphaerella graminicola (Septoria tritici) / liquid culture (Septoria blotch); format: cell-based; conditions: 200 ppm; PDB potato dextrose broth, 24° C., 4-5 days after application
Procedure: as §1, with “13.” for “12.”, “graminicola (Septoria tritici)/Liquid” for “arachidis (Cercospora arachidicola)/Liquid”, “(Septoria Blotch):” for “(Early Leaf Spot):”

[6] = system: Gaeumannomyces graminis; test: Gaeumannomyces graminis / liquid culture (take-all of cereals); format: cell-based; conditions: 200 ppm; PDB potato dextrose broth, 24° C., 4-5 days after application
Procedure: 14. Gaeumannomyces graminis/Liquid Culture (Take-all of Cereals): Mycelial fragments of the fungus from cryogenic storage were directly mixed into nutrient broth (PDB potato dextrose broth). After placing a DMSO solution of test compound into a 96-well microtiter plate at an application rate of 200 ppm, the nutrient broth […], containing the fungal spores is added. The test plates were incubated at 24° C. and the inhibition of growth was determined photometrically 4-5 days after application.

[7] = system: Thanatephorus cucumeris (Rhizoctonia solani); test: Thanatephorus cucumeris (Rhizoctonia solani) / liquid culture (foot rot, damping-off); format: cell-based; conditions: 200 ppm; PDB potato dextrose broth, 24° C., 3-4 days after application
Procedure: 17. Thanatephorus cucumeris (Rhizoctonia solani)/Liquid Culture (Foot Rot, Damping-Off): Mycelia fragments of a newly grown liquid culture of the fungus were directly mixed into nutrient broth (PDB potato dextrose broth). After placing a DMSO solution of the test compounds into a 96-well microtiter plate at an application rate of 200 ppm, the nutrient broth containing the fungal material was added. The test plates were incubated at 24° C. and the inhibition of growth was determined photometrically 3-4 days after application.

[8] = system: Glomerella lagenarium (Colletotrichum lagenarium); test: Glomerella lagenarium (Colletotrichum lagenarium) / liquid culture (anthracnose); format: cell-based; conditions: 200 ppm; PDB potato dextrose broth, 24° C., 3-4 days after application
Procedure: as §1, with “11. Glomerella lagenarium (Colletotrichum lagenarium)/Liquid” for “12. Mycosphaerella arachidis (Cercospora arachidicola)/Liquid”, “(Anthracnose):” for “(Early Leaf Spot):”, “measured” for “determined”, “3-4” for “4-5”

Structure (SMILES) | disease control (inhibition of growth determined photometrically) [1] | disease control (inhibition of growth determined photometrically) [2] | disease control (inhibition of growth determined photometrically) [4] | disease control (inhibition of growth determined photometrically) [5] | also measured
CNC(=O)c1ccc2c(c1)B(O)OC2 [Compound 34] | at least 80% |  |  |  | 
O=C(O)c1ccc2c(c1)B(O)OC2 [Compound 1] | at least 80% |  |  |  | 
O=C(NCc1ccc(F)cc1)c1cc2c(cc1F)COB2O [Compound 14] | at least 80% | at least 80% |  |  | 
CON(C)C(=O)c1ccc2c(c1)B(O)OC2 [Compound 36] | at least 80% |  |  |  | 
C=CCNC(=O)c1cc2c(cc1Cl)COB2O [Compound 24] | at least 80% |  |  |  | 
O=C(NCc1ccc(Cl)cc1)c1cc2c(cc1F)COB2O [Compound 7] | at least 80% | at least 80% |  |  | disease control [3]: at least 80%
CNC(=O)c1cc2c(cc1Cl)COB2O [Compound 33] | at least 80% |  |  |  | 
O=C(Nc1ccc(C(F)(F)F)cc1)c1cc2c(cc1F)COB2O [Compound 26] | at least 80% |  | at least 80% | at least 80% | disease control [3]: at least 80%; disease control (inhibition of growth determined photometrically) [6]: at least 80%
O=C(Nc1ccc(Cl)cc1)c1ccc2c(c1)B(O)OC2 [Compound 29] | at least 80% |  |  |  | 
O=C(O)c1cc2c(cc1F)COB2O [Compound 4] | at least 80% |  |  |  | 
O=C(c1cc2c(cc1Cl)COB2O)N1CCCCC1 [Compound 25] | at least 80% |  |  |  | 
O=C(Nc1ccc(Cl)cc1)c1cc2c(cc1Cl)COB2O [Compound 2] | at least 80% |  | at least 80% |  | 
CC(C)OC(=O)c1cc2c(cc1Cl)COB2O [Compound 41] | at least 80% |  | at least 80% | at least 80% | disease control (inhibition of growth determined photometrically) [7]: at least 80%; disease control (inhibition of growth measured photometrically) [8]: at least 80%
O=C(Nc1ccc(F)cc1F)c1ccc2c(c1)B(O)OC2 [Compound 31] | at least 80% |  |  |  | 
N#Cc1ccc(CNC(=O)c2cc3c(cc2F)COB3O)cc1 [Compound 8] | at least 80% |  |  |  | 
O=C(c1ccc2c(c1)B(O)OC2)N1CCCCC1 [Compound 32] | at least 80% |  | at least 80% | at least 80% | 

Structure (SMILES) | disease control (inhibition of growth determined photometrically) [1] | disease control (inhibition of growth determined photometrically) [2] | disease control (inhibition of growth determined photometrically) [4] | disease control (inhibition of growth determined photometrically) [5] | also measured
CONC(=O)c1ccc2c(c1)B(O)OC2 [Compound 38] | at least 80% |  |  |  | 
O=C(OCC(F)(F)F)c1ccc2c(c1)B(O)OC2 [Compound 18] | at least 80% | at least 80% | at least 80% | at least 80% | disease control (inhibition of growth determined photometrically) [7]: at least 80%
CCOC(=O)c1ccc2c(c1)B(O)OC2 [Compound 17] | at least 80% | at least 80% | at least 80% | at least 80% | disease control (inhibition of growth determined photometrically) [7]: at least 80%; disease control (inhibition of growth measured photometrically) [8]: at least 80%; disease control (inhibition of growth determined photometrically) [6]: at least 80%
O=C(c1ccc2c(c1)B(O)OC2)N1CCOCC1 [Compound 28] | at least 80% |  |  |  | 
O=C(Nc1ccc(F)cc1)c1ccc2c(c1)B(O)OC2 [Compound 30] | at least 80% |  |  |  | 
O=C(Nc1ccc(Cl)cc1)c1cc2c(cc1F)COB2O [Compound 6] | at least 80% | at least 80% | at least 80% | at least 80% | disease control [3]: at least 80%; disease control (inhibition of growth determined photometrically) [6]: at least 80%
O=C(c1cc2c(cc1Cl)COB2O)N1CCOCC1 [Compound 22] | at least 80% |  |  |  | 
O=C(Nc1ccc(F)cc1)c1cc2c(cc1F)COB2O [Compound 13] | at least 80% | at least 80% |  |  | disease control (inhibition of growth determined photometrically) [7]: at least 80%; disease control (inhibition of growth determined photometrically) [6]: at least 80%
O=C(OCC(F)(F)F)c1cc2c(cc1F)COB2O [Compound 20] | at least 80% |  | at least 80% | at least 80% | disease control (inhibition of growth determined photometrically) [7]: at least 80%
CCOC(=O)c1cc2c(cc1Cl)COB2O [Compound 3] | at least 80% | at least 80% | at least 80% | at least 80% | disease control (inhibition of growth determined photometrically) [7]: at least 80%; disease control (inhibition of growth measured photometrically) [8]: at least 80%; disease control (inhibition of growth determined photometrically) [6]: at least 80%
O=C(NCc1ccc(Cl)cc1)c1ccc2c(c1)B(O)OC2 [Compound 10] | at least 80% |  |  |  | 
CCCOC(=O)c1ccc2c(c1)B(O)OC2 [Compound 39] | at least 80% | at least 80% | at least 80% | at least 80% | disease control (inhibition of growth determined photometrically) [7]: at least 80%; disease control (inhibition of growth measured photometrically) [8]: at least 80%
O=C(NCc1ccc(F)cc1)c1cc2c(cc1Cl)COB2O [Compound 12] | at least 80% |  |  |  | 
CCOC(=O)c1cc2c(cc1F)COB2O [Compound 5] | at least 80% | at least 80% | at least 80% | at least 80% | disease control (inhibition of growth determined photometrically) [7]: at least 80%; disease control (inhibition of growth measured photometrically) [8]: at least 80%; disease control (inhibition of growth determined photometrically) [6]: at least 80%
O=C(OCC(F)(F)F)c1cc2c(cc1Cl)COB2O [Compound 19] | at least 80% | at least 80% | at least 80% | at least 80% | disease control (inhibition of growth determined photometrically) [7]: at least 80%; disease control (inhibition of growth determined photometrically) [6]: at least 80%
O=C(O)c1cc2c(cc1Cl)COB2O [Compound 11] | at least 80% |  |  |  | 
